Source: PubChem BioAssay AID1347076 (National Center for Advancing Translational Sciences (NCATS), 2019)
Screen size: about 400,000 compounds; about 13,000 (3.2%) were called active. Inconclusive results, whose numbers are uncertain, are shown with a selection of clear calls. Calls come from the whole dose curve; as a rule, active = well fitted cell-killing curve with a large enough effect; inconclusive = small, poorly fitted or top-dose-only effect, or effect the other way; inactive = flat fitted curve, though single readings scatter. Where the call is inconclusive, the potency comes from a doubtful curve fit.

experiment: qHTS assay for MDR1-selective chemotherapeutics: Primary screen using the drug-selected MDR subline cells KB-V1; conditions: KB-V1 MDR cells viability, CellTiter-Glo, 72 h; series mostly up to 46.1 µM; note: nearly all actives have a fitted effect of over 60% in size
Procedure, shortened: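 KB-V1, DMEM (no phenol red) + 10% FBS; cpd pin-transferred, titration series; 72 h, 37 degrees C; CellTiter-Glo, luminescence. Data normalized, curve-fit.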
Potency is the fitted concentration of half-maximal effect.

SMILES	Potency
CS(=O)(=O)c1ccc(C(=O)N(Cc2ccccc2)c2ccccc2)cc1	inconclusive: 13 µM [cytotoxic, partial curve]
CN(C)c1ccc(/C=C/c2cnnc3ccccc23)cc1	inconclusive: 20.6 µM [cytotoxic, single point]
COc1ccc(CC(N)c2csc(NC(=O)c3cc(C(C)(C)C)nn3Cc3ccccc3)n2)cc1 (configuration not stated)	inconclusive: 20.6 µM [cytotoxic, single point]
COc1ccc(C(C(=O)c2ccccc2)c2ccccc2)cc1 (configuration not stated)	inconclusive: 25.9 µM [cytotoxic, single point]
O=C(OCCCN=C1NS(=O)(=O)c2ccccc21)c1cccs1	inconclusive: 13 µM [rising, partial curve, poor fit]
Cc1cccc(-n2c(O)c(/C=N/NC(=O)c3ccccc3Cl)c3ccccc3c2=O)n1	inactive
O=C(Cn1nnc2ccccc2c1=O)N[C@@H](Cc1c[nH]c2ccccc12)C(=O)O	inconclusive: 18.4 µM [rising, single point]
CCC(C(=O)NCc1ccco1)N(C(=O)CNS(=O)(=O)c1ccccc1)c1ccccc1C (configuration not stated)	inconclusive: 3.26 µM [cytotoxic, partial curve, poor fit]
O=C(O)CNc1nc(-c2ccccc2)nc2c1oc1ccccc12	inconclusive: 20.6 µM [rising, partial curve, poor fit]
Cc1cc(/C=C2\C=Cc3ccccc32)cc(C)c1[N+](=O)[O-]	inactive
O=C(NN=C1CCCC1)c1[nH]c2ccc(Cl)cc2c1-c1ccccc1	inconclusive: 18.4 µM [cytotoxic, single point]
O=C(CSc1cn(CC(=O)N2CCCCC2)c2ccccc12)NCC1CCCO1 (configuration not stated)	inconclusive: 18.4 µM [cytotoxic, single point]
CCc1nc(SCC(=O)N2CCC(C)CC2)c2c(=O)n(C)c(=O)n(C)c2n1	inconclusive: 25.9 µM [cytotoxic, single point]
Clc1ccc(-c2nnc(NC3=NCCCCC3)o2)cc1	inconclusive: 29.1 µM [cytotoxic, single point]
O=C(COc1ccccc1-c1ccccc1)Nc1ccc(S(=O)(=O)NCc2ccco2)cc1	inconclusive: 5.8 µM [cytotoxic, full curve]
Cc1ccc(/C(CSc2nccn2-c2ncc(C(F)(F)F)cc2Cl)=N\O)cc1	inconclusive: 18.4 µM [cytotoxic, single point]
COc1ccccc1Nc1cc(C(=O)NCc2cccs2)c2ccccc2n1	inconclusive: 18.4 µM [cytotoxic, partial curve, poor fit]
CCCOc1cccc(C(=O)Nc2cccc(NC(=O)c3ccco3)c2)c1	inconclusive: 14.6 µM [cytotoxic, partial curve, poor fit]
CCCCNC(=S)Nc1ccc(-c2nc3ccc(C)cc3s2)cc1	inconclusive: 20.6 µM [cytotoxic, partial curve, poor fit]
CC1=Nc2ccccc2N=C(NC(=O)CSC(=S)N2CCN(C)CC2)C1c1ccccc1 (configuration not stated)	inactive
COc1ccc(-c2cnc3c(NC=O)cc(-c4ccccc4OC)cn23)cc1OC	active: 1.16 µM
COc1ccc(Nc2nc3[nH]c(=O)cc(O)c3s2)cc1	inactive
O=C(NNC(=O)c1ccccc1Br)c1ccncc1	inconclusive: 8.2 µM [rising, partial curve, poor fit]

SMILES	Potency
CN(N)c1nc(-c2ccccc2)cc(-c2ccccc2)n1	inconclusive: 20.6 µM [cytotoxic, single point]
COC(=O)[C@@]12C[C@@H](CC(=O)NCCC(C)C)C(=O)N(Cc3ccc4c(c3)OCO4)C1=CCC(C)(C)C2	inconclusive: 8.2 µM [cytotoxic, partial curve]
CCNC(=O)Cc1ccc(NC(=O)N2CCCCc3ccccc32)cc1	inactive
Nc1cccc([N+](=O)[O-])c1	inconclusive: 29.1 µM [rising, single point]
COc1ccc(CCNC(=O)C2CCN(S(=O)(=O)c3cccs3)CC2)cc1OC	inconclusive: 20.6 µM [cytotoxic, single point]
COc1ccc(OC)c(NC(=O)c2cnc(Nc3ccccc3OC)c3ccccc23)c1	active: 6.51 µM
OCCCNc1nc(-c2ccccc2)c2cc(Br)ccc2n1	inconclusive: 29.1 µM [cytotoxic, single point]
CC(NCc1ccccc1Cl)C(=O)Nc1ccc(C#N)cc1 (configuration not stated)	inconclusive: 18.4 µM [cytotoxic, single point]
CCC1C(=O)NCCN1C(=O)c1ccc2nc(Cc3cccc(Cl)c3)oc2c1 (configuration not stated)	inconclusive: 18.4 µM [cytotoxic, partial curve, poor fit]
Cc1ccc(/C=C/C(=O)c2cc(Br)ccc2OC(=O)c2ccco2)cc1	inconclusive: 29.1 µM [cytotoxic, single point]
CC(C)C1C(c2ccccc2)N(C)C(c2ccccc2)CC1(O)c1ccccc1 (configuration not stated)	inconclusive: 18.4 µM [cytotoxic, single point]
COc1ccc(S(=O)(=O)N2CCOC2CNC(=O)C(=O)NCc2ccc3c(c2)OCO3)cc1 (configuration not stated)	inconclusive: 18.4 µM [cytotoxic, partial curve]
CCOc1ccc(-n2cc(C(=O)Nc3ccc(Cl)cn3)c3cc(OC)c(OC)cc3c2=O)cc1	inconclusive: 0.326 µM [cytotoxic, full curve, poor fit]
C=CCC[C@@H](Cc1ccc(F)cc1)C(=O)OC[C@H](Cc1c[nH]c2ccccc12)NC(=O)[C@@H](CC=C)CC(=O)N(CCO)Cc1ccccc1	inconclusive: 23.1 µM [cytotoxic, single point]
Cc1nc(-c2ccccc2)sc1CCNS(=O)(=O)c1ccc(Br)cc1	active: 20.6 µM
COc1cc(S(=O)(=O)N2CCC(c3nc4ccccc4s3)CC2)ccc1S(=O)(=O)N1CC(C)CC(C)C1 (configuration not stated)	inconclusive: 4.61 µM [cytotoxic, full curve]
O=C1c2ccccc2-c2n[nH]c3cccc1c23	inconclusive: 20.6 µM [cytotoxic, single point]
CN(C)/N=C/c1ccc(N2CCOCC2)cc1	inconclusive: 29.1 µM [rising, single point]
Cc1ccccc1NC(=O)Nc1cnccn1	inconclusive: 25.9 µM [cytotoxic, single point]
Cc1cccc2sc(NC(=O)C3CCCO3)nc12 (configuration not stated)	inconclusive: 20.6 µM [cytotoxic, partial curve]
CN(C)c1ccc(NC(=O)COC(=O)Cn2nnc3ccccc32)cc1	inactive
CCN(C[C@H]1N[C@@](CC)(C(=O)OC)[C@H]2C(=O)N(Cc3ccccc3)C(=O)[C@@H]12)C(=O)Nc1ccc(OC)cc1	inactive
O=C(c1ccc(C#CC2(O)CCCCC2)cc1)N1CCN(Cc2ccccc2)CC1	inconclusive: 10.3 µM [cytotoxic, partial curve]

A few values from the results shown.
Under Potency, CC(C)C1C(c2ccccc2)N(C)C(c2ccccc2)CC1(O)c1ccccc1 (configuration not stated) has inconclusive: 18.4 µM [cytotoxic, single point]
Under Potency, CCOc1ccc(-n2cc(C(=O)Nc3ccc(Cl)cn3)c3cc(OC)c(OC)cc3c2=O)cc1 has inconclusive: 0.326 µM [cytotoxic, full curve, poor fit]
Under Potency, COc1cc(S(=O)(=O)N2CCC(c3nc4ccccc4s3)CC2)ccc1S(=O)(=O)N1CC(C)CC(C)C1 (configuration not stated) has inconclusive: 4.61 µM [cytotoxic, full curve]
Under Potency, Cc1ccccc1NC(=O)Nc1cnccn1 has inconclusive: 25.9 µM [cytotoxic, single point]

Later entries.

SMILES	Potency
CC(C)(C)C1CCC(NC(=O)c2cnn3c2NC(=C2CC2)C=C3C(F)F)CC1 (configuration not stated)	inconclusive: 29.1 µM [cytotoxic, single point]
CCC1Oc2ccccc2N(CC(=O)NCC2CCCO2)C1=O (configuration not stated)	inconclusive: 23.1 µM [rising, single point]
CCCc1nc2oc3c(NCCN(C)C)ncnc3c2c2c1CCCC2	inactive
CN(C)CC(C)(C)CNS(=O)(=O)CC12CCC(CC1=O)C2(C)C (configuration not stated)	inactive
O=C(CN1CCC(NC(=O)C2CCCCC2)CC1)NCc1ccco1	inconclusive: 0.184 µM [rising, full curve]
NC(=S)N=Nc1c(O)[nH]c2cc(F)c(F)cc12	inconclusive: 18.4 µM [cytotoxic, single point]
CCCCN(C)c1c(C)nc2ccc(C(=O)N(C)Cc3ccco3)cn12	inconclusive: 8.2 µM [cytotoxic, partial curve]
COc1ccc(CC(=O)NCCc2csc(-c3ccc(Cl)cc3)n2)cc1	active: 0.92 µM
C=CCCC(=O)Nc1nc(C)c(-c2csc(Nc3ccc(Cl)cc3Cl)n2)s1	inconclusive: 20.6 µM [cytotoxic, single point]
COc1ccc(-c2csc(NC(=S)NC(=O)c3ccccc3)n2)cc1Br	inactive
COc1ccc(S(=O)(=O)NC(C)c2ccccc2)cc1C(=O)N1CCCCC1 (configuration not stated)	inconclusive: 32.6 µM [cytotoxic, single point]
O=C(C1CC(=O)N(c2ccc3c(c2)OCCO3)C1)N1CCN(S(=O)(=O)c2cccc(F)c2)CC1 (configuration not stated)	active: 20.6 µM
CCOc1ccc(NS(=O)(=O)c2ccc(C(=O)NCC3CCCO3)cc2)cc1 (configuration not stated)	inactive
Cc1ccc([N+](=O)[O-])cc1NC(=O)Nc1cccc(F)c1	inconclusive: 20.6 µM [cytotoxic, single point]
Cc1ccc2c(c1)cc(C(=O)Nc1ccc(F)cc1F)n2C	inactive
CC(=O)Nc1ccc(S(=O)(=O)NCCC(=O)OCc2nc(N)nc(Nc3ccccc3C)n2)cc1	inconclusive: 20.6 µM [cytotoxic, single point]
Cc1cccc(NC(=O)C2CCCN(S(=O)(=O)c3cnc[nH]3)C2)c1C (configuration not stated)	inactive
COc1ccc(CNC(=O)CN2C(=O)C(c3ccccc3)Oc3cccnc32)cc1 (configuration not stated)	inactive
O=C(Cc1cc(=O)[nH][nH]1)N/N=C/c1c(F)cccc1Cl	inactive
Cc1c(Cl)cccc1NC(=O)CSc1nncn1-c1ccccn1	inconclusive: 16.4 µM [cytotoxic, single point]
CCCCNC(=S)N/N=C/C1=CCC2CC1C2(C)C (configuration not stated)	inconclusive: 18.4 µM [cytotoxic, partial curve]
